Several values for one entry are separate records, joined by “and”; a condition that tells them apart may be missing. Equal values may be shown once. Where a name gives a salt, the structure may show the parent alone. ± gives the standard deviation of the averaged measurements. Some of the results follow. Part of the spread comes from offsets between plates or batches.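 Assay uses culture-activated primary human stellate myofibroblasts; lipid droplet recovery indicates inactivation. Measured: proportion of Hoechst-counted cells over a plate-specific Bodipy cutoff, duplicate wells, DMSO and nortriptyline as per-plate negative and positive controls. A hit scores, control-normalized, above the plate's top-tenth-percentile nortriptyline wells or ranks among its three best wells. Final well concentrations not reported.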

We go through 47 molecules from the supplement of paper PMC9135407.

The experiment concerns primary human hepatic stellate cells (donor 1). The experiment can be described thus: percent Bodipy-positive cells; higher = more lipid droplet accumulation. Particulars: 48 h.
[1] abbreviates: library stock concentration: 10 mM.
Setting [2] is: library stock concentration: 1 mM.
[3] abbreviates: library stock concentration: 80 uM.
[4] abbreviates: library stock concentration: 400 uM.
Where [5] appears, read: library stock concentration: 3.33 mM.
The mark [6] stands for this setting: library stock concentration: 5.4 mM.
[7] abbreviates: library stock concentration: 2 mM.

For `Nc1nc2[nH]cc(CCc3ccc(C(=O)N[C@@H](CCC(=O)O)C(=O)O)cc3)c2c(=O)[nH]1`, the “percent Bodipy-positive cells” value under setting [1] was found to be 44.1 ± 7.9%. Regarding `CCCCCCCCCCCCCCCCOCC(COP(=O)([O-])OCC[N+](C)(C)C)OC` (centres undefined) [1-Hexadecyl-2-methylglycero-3 PC], the “percent Bodipy-positive cells” value under setting [2] came out at 6.87 ± 0.97%. With `CCN1CCN(Cc2ccc(Nc3ncc(F)c(-c4cc(F)c5nc(C)n(C(C)C)c5c4)n3)nc2)CC1` [Abemaciclib], the “percent Bodipy-positive cells” value reads like this: under setting [3], 32 ± 8.8%; under setting [4], 41.6 ± 6.6%; under setting [1], 98.983 ± 0.066%. Consider `COCCc1ccc(OCC(O)CNC(C)C)cc1` (centres undefined) [Metoprolol Tartrate], for which the “percent Bodipy-positive cells” value by setting is: under setting [5], 5.54 ± 0.95%; under setting [1], 27.6 ± 6.2%. As for `COCCc1ccc(OCC(O)CNC(C)C)cc1` (centres undefined) [Metoprolol tartrate], the “percent Bodipy-positive cells” value (library stock concentration: 4.8 mM) is 3.37 ± 0.33%, the “percent Bodipy-positive cells” value (library stock concentration: 7.5 mM) came out at 12.5 ± 1.3% and the “percent Bodipy-positive cells” value under setting [1] is 12.9 ± 0.59%.

`COCCc1ccc(OCC(O)CNC(C)C)cc1` (stereo not drawn) [(?)-Metoprolol (+)-tartrate]: under setting [1], the “percent Bodipy-positive cells” value was 48.4 ± 16%. `COc1ccc(C(=O)c2ccccc2O)c(O)c1` [Dioxybenzone]: the “percent Bodipy-positive cells” value came out at 16.4 ± 9.3%. Further, the “percent Bodipy-positive cells” value under setting [1] was determined as 21.4 ± 0.52%. With `CCCCC[C@H](O)/C=C/[C@@H]1[C@@H](C/C=C\CCCC(=O)NCCO)[C@@H](O)C[C@@H]1O` [11.beta.-Prostaglandin F2.alpha. Ethanolamide], under setting [2], the “percent Bodipy-positive cells” value was found to be 18.1 ± 6.3%. `CC(C)(C)NC[C@H](O)COc1ccccc1C1CCCC1` [Penbutolol sulfate]: the “percent Bodipy-positive cells” value is 51.2 ± 1.9%. On to `O=C(O)c1cc(I)ccc1NC(=O)[C@H](Cc1ccccc1)NCc1ccccc1`, for which the “percent Bodipy-positive cells” value is 26 ± 3.8% under setting [5] and 27.5 ± 9.7% under setting [1]. Regarding `N[C@H](C(=O)O)[C@H]1C[C@@H]1C(=O)O` [(2S,1'S,2'S)-2-(carboxycyclopropyl)glycine], the “percent Bodipy-positive cells” value under setting [1] stood at 28.1 ± 1.7%. Same read-out and setting: for `Cc1ncc(COP(=O)([O-])[O-])c(CN(CCN(CC(=O)O)Cc2c(COP(=O)([O-])O)cnc(C)c2O)CC(=O)O)c1O.[Mn].[Na+].[Na+].[Na+]` the value was 41.8 ± 3.5%; for `COc1ccc2cccc(N3CCN(CCNC(=O)c4ccc(F)cc4)CC3)c2c1`, 40.31 ± 0.23%. Consider `CC(C)CC[C@@H](O)[C@@H](C)[C@H]1CC[C@H]2[C@@H]3CC=C4C[C@@H](O)CC[C@]4(C)[C@H]3CC[C@]12C` [22(R)-hydroxy Cholesterol], for which, under setting [2], the “percent Bodipy-positive cells” value was found to be 11.71 ± 0.024%. As to `CC(C)NC[C@@H](C(=O)N1CCN(c2ncnc3c2[C@H](C)C[C@H]3O)CC1)c1ccc(Cl)cc1`, the “percent Bodipy-positive cells” value under setting [1] was found to be 53.8 ± 3.1%.

As for `CC1=C(C/C=C(\C)CCC[C@H](C)CCC[C@H](C)CCCC(C)C)C(=O)c2ccccc2C1=O` [Phylloquinone], under setting [1], the “percent Bodipy-positive cells” value is 11.1 ± 4%. On to `CC1=C(C/C=C(\C)CCC[C@H](C)CCC[C@H](C)CCCC(C)C)C(=O)c2ccccc2C1=O` [Phytonadione], for which the “percent Bodipy-positive cells” value (library stock concentration: 4.4 mM) was 1.44 ± 0.86%. Turning to `CN1CCN(S(=O)(=O)c2ccc(-c3cnc(N)c(C(=O)Nc4cccnc4)n3)cc2)CC1`, the “percent Bodipy-positive cells” value under setting [1] was 94.2 ± 2.1%.

As to `COc1ccc(CC(=O)NC(/N=C(\NC#N)Nc2cccc3ncccc23)C(C)(C)C)cc1OC` (centres undefined), the “percent Bodipy-positive cells” value under setting [1] stood at 13.1 ± 5.3%. `O=C(O)C1(C(=O)O)CCC1.[NH2-].[NH2-].[Pt+2]` [Carboplatin]: the “percent Bodipy-positive cells” value came to 18.3 ± 3.6% under setting [6] and 6.64 ± 0.87% (library stock concentration: 5.9 mM). In the case of `CCOc1cc2ncc(C#N)c(Nc3ccc(F)c(Cl)c3)c2cc1NC(=O)C=CCN(C)C`, the “percent Bodipy-positive cells” value under setting [1] was determined as 97.3 ± 3.2%. Take `CNCCC(Oc1ccc(C(F)(F)F)cc1)c1ccccc1.Cl` (centres undefined) [Fluoxetine hydrochloride]: the “percent Bodipy-positive cells” value under setting [1] is 96.3 ± 3%. As for `COC(=O)C(N)Cc1ccc(Cl)cc1` (racemic) [DL-p-Chlorophenylalanine methyl ester hydrochloride], under setting [1], the “percent Bodipy-positive cells” value was determined as 38 ± 10%. With `NC(CCC(=O)NC(CSN=O)C(=O)NCC(=O)O)C(=O)O` [S-Nitroso-L-glutathione], the “percent Bodipy-positive cells” value under setting [2] stood at 5.77 ± 1.1%.

Take `CC(=O)Nc1cccc(O)c1` [Metacetamol]: under setting [1], the “percent Bodipy-positive cells” value turned out to be 41.6 ± 10%. Turning to `Cc1cnc(C(=O)O)c[n+]1[O-]` [Acipimox], the “percent Bodipy-positive cells” value reads like this: under setting [5], 4.32 ± 1.2%; under setting [1], 7.86 ± 3.5%; (library stock concentration: 13 mM) 7.86 ± 1.2%. With `O=C(c1cncc(Br)c1)N1CCC(N2CCCC2)CC1`, the “percent Bodipy-positive cells” value is, setting by setting: under setting [3], 31 ± 1.4%; under setting [4], 30.5 ± 3.4%; under setting [7], 26.9 ± 11%; under setting [5], 22.5 ± 6.3%; under setting [1], 31.2% and 28.1%. As for `O=C(Nc1ccc([N+](=O)[O-])cc1O)Nc1ccccc1Br`, the “percent Bodipy-positive cells” value is, setting by setting: under setting [2], 23.6 ± 3.3%; under setting [1], 27.51 ± 0.1%. With `O=c1c(O)c(-c2ccc(O)c(O)c2)oc2cc(O)cc(O)c12` [Quercetin dihydrate], under setting [1], the “percent Bodipy-positive cells” value was 23.8 ± 5.7%. Turning to `O=c1c(O)c(-c2ccc(O)c(O)c2)oc2cc(O)cc(O)c12` [Quercetin], the “percent Bodipy-positive cells” value is 17.6 ± 7.6% under setting [2]; 9.71 ± 0.63% under setting [5]; 35.3% and 21% and 13.1% under setting [1]. As for `O=c1c(O)c(-c2ccc(O)c(O)c2)oc2cc(O)cc(O)c12` [Quercetin Dihydrate], the “percent Bodipy-positive cells” value is, setting by setting: under setting [5], 13.8 ± 5.5%; under setting [1], 15.3 ± 1.7%. On to `O=c1c(O)c(-c2ccc(O)c(O)c2)oc2cc(O)cc(O)c12` [Quercetine dihydrate], for which the “percent Bodipy-positive cells” value is 51.9 ± 25%. As to `c1ccc(-c2n[nH]c3c2oc2ccccc23)cc1`, the “percent Bodipy-positive cells” value is 7.61 ± 1.2% under setting [5] and 9.64 ± 5.6% under setting [1].

Turning to `c1ccc2oc(C3=NCCN3)cc2c1` [2-BFI hydrochloride], the “percent Bodipy-positive cells” value under setting [1] stood at 9.22 ± 3.4%. Turning to `CCc1oc2ccccc2c1C(=O)c1cc(Br)c(O)c(Br)c1` [Benzbromarone], the “percent Bodipy-positive cells” value turned out to be 24.6 ± 3.9%. Also, the “percent Bodipy-positive cells” value under setting [5] was 11 ± 0.41%. The “percent Bodipy-positive cells” value (library stock concentration: 4.7 mM) amounted to 12.3 ± 11%. The “percent Bodipy-positive cells” value under setting [1] is 36.6 ± 13%. With `CCc1oc2ccccc2c1C(=O)c1cc(Br)c(O)c(Br)c1`, the “percent Bodipy-positive cells” value under setting [1] came out at 12.9 ± 3.4%. Take `CC/C(=C(\c1ccccc1)c1ccc(OCCN(C)C)cc1)c1ccccc1` [Tamoxifen]: the “percent Bodipy-positive cells” value is, setting by setting: under setting [1], 98.4% and 99.4%; (library stock concentration: 13.5 mM) 75.2 ± 5.2%. Consider `CC/C(=C(\c1ccccc1)c1ccc(OCCN(C)C)cc1)c1ccccc1` [Tamoxifen Citrate], for which the “percent Bodipy-positive cells” value is 57.5 ± 3% under setting [5] and 93.9 ± 2.1% under setting [1]. With `CC/C(=C(\c1ccccc1)c1ccc(OCCN(C)C)cc1)c1ccccc1` [Tamoxifen citrate], the “percent Bodipy-positive cells” value was 52.6 ± 2.3%. Moreover, the “percent Bodipy-positive cells” value (library stock concentration: 3.5 mM) stood at 80.9 ± 9.9%. Also, the “percent Bodipy-positive cells” value under setting [6] was 39.2 ± 7.3%. On to `CN[C@@H]1[C@H](O[C@H]2[C@H](O[C@H]3[C@H](O)[C@@H](O)[C@H](NC(=N)N)[C@@H](O)[C@@H]3NC(=N)N)O[C@@H](C)[C@]2(O)CO)O[C@@H](CO)[C@H](O)[C@H]1O` [Dihydrostreptomycin sulfate], for which the “percent Bodipy-positive cells” value was 28.1 ± 6%. Moreover, where the note is “library stock concentration: 2.9 mM”, the “percent Bodipy-positive cells” value is 4.88 ± 0.75%. Under setting [1], the “percent Bodipy-positive cells” value amounted to 7.35 ± 2.4%. For the molecule `NCc1ccc(S(N)(=O)=O)cc1`, the “percent Bodipy-positive cells” value under setting [1] stood at 39.8 ± 11%. As to `NCc1ccc(S(N)(=O)=O)cc1` [Mafenide hydrochloride], the “percent Bodipy-positive cells” value came out at 25.5 ± 3.8%. Further, the “percent Bodipy-positive cells” value (library stock concentration: 9 mM) worked out at 3.84 ± 0.99%. In addition, the “percent Bodipy-positive cells” value under setting [1] amounted to 13.7 ± 2%. As for `Cc1c[nH]c(/C=C2\C(=O)Nc3ccccc32)c1CCC(=O)O`, the “percent Bodipy-positive cells” value under setting [4] was determined as 33.58 ± 0.16%, the “percent Bodipy-positive cells” value under setting [7] came out at 20.8 ± 3.6% and the “percent Bodipy-positive cells” value under setting [1] worked out at 27.1 ± 5.3%. Regarding `Cc1ccccc1N=Nc1ccc(NC(=O)c2ccnn2C)c(C)c1`, under setting [1], the “percent Bodipy-positive cells” value was found to be 9.37 ± 1.4%. With `CCN(CCCOc1ccc2c(Nc3cc(CC(=O)Nc4cccc(F)c4)[nH]n3)ncnc2c1)CCOP(=O)(O)O` [Barasertib], the “percent Bodipy-positive cells” value reads like this: under setting [3], 11.6 ± 0.059%; under setting [4], 8.38 ± 4.5%; under setting [7], 19.7 ± 2.4%; under setting [1], 37.4 ± 10%. For `CC(C)(C)NCC(O)c1cc(O)cc(O)c1` (centres undefined) [Terbutaline Sulfate], the “percent Bodipy-positive cells” value under setting [1] came out at 40.38 ± 0.12%. `CC(C)(C)NCC(O)c1cc(O)cc(O)c1` (centres undefined) [Terbutaline hemisulfate]: the “percent Bodipy-positive cells” value worked out at 35.7 ± 4.1%. The “percent Bodipy-positive cells” value (library stock concentration: 6.2 mM) came to 14.6 ± 1.5%. Besides, under setting [1], the “percent Bodipy-positive cells” value was 17.1% and 12.9%.
